The list is a part of this screen's results and no random one: it gathers tests that were run many times, whatever their T/C, doses with no T/C, and many T/C values between a quarter and a half above the control. Other doses and runs of a compound stand elsewhere. T/C is the treated group as % of the vehicle group. Some doses have a count of surviving animals in place of a T/C: the source holds a T/C of zero for them, seemingly a mark for toxic or unscored doses. Some survivor counts are full or nearly so, which does not show that the dose was tolerated: the source hardly ever lists a survival T/C far under the control, and the zero likely stands for such cases as well. Counts of survivors are from the toxicity check (mostly the fifth day) where no day follows; animals may have died later. Schedules are NCI's codes, read here as Q, the interval in days (D) or hours (H), X, the number of doses. For survival time, the PubChem record calls one and a half times the control and up active, and a quarter to a half above the control has no call in these data; cut-offs in other NCI protocols can differ. Some entries hold several experiments; their values stand side by side, smallest first.
Tested on: BDF1 mice, P388/VCR leukemia ip, median survival T/C
Experiment: NCI In Vivo Anticancer Drug Screen. Data for tumor model P388 Leukemia resistant to Vincristine; NSC 67574 (intraperitoneal) in B6D2F1 (BDF1) mice
Details: T/C endpoint: median survival time, higher T/C = longer survival
Procedure: The antitumor activity of compounds was measured in mice bearing transplantable tumors. Survival or tumor size were measured and the results are expressed as the measurement made in the treated group (T) divided by the measurement made in the vehicle treated control group (C). The tumor model used in this assay is P388 Leukemia resistant to Vincristine; NSC 67574 (intraperitoneal) in B6D2F1 (BDF1) mice

`Clc1ncnc2nc[nH]c12` was tested, and the survivor count (dose: 30.0 mg/kg/injection, schedule: Q01DX010 (ip), vehicle: saline) was 6 of 6 and the survivor count (dose: 60.0 mg/kg/injection, schedule: Q01DX010 (ip), vehicle: saline) was 6 of 6.

In the case of `Cc1cc(N(CCCl)CCCl)ccc1N=Nc1ccccc1C(=O)O`, the survivor count (dose: 40.0 mg/kg/injection, schedule: Q01DX010 (ip), vehicle: saline) is reported as 6 of 6.

`CC(=O)Nc1ccc2nc3ccc(NC(C)=O)cc3[n+](-c3ccccc3)c2c1` was tested, and the survivor count (dose: 100.0 mg/kg/injection, schedule: Q01DX010 (ip), vehicle: saline) was 6 of 6 and the survivor count (dose: 200.0 mg/kg/injection, schedule: Q01DX010 (ip), vehicle: saline) was 5 of 6.

In the case of `c1ccc(CNc2ncnc3[nH]ncc23)cc1`, the survivor count (dose: 32.0 mg/kg/injection, schedule: Q01DX010 (ip), vehicle: saline) is reported as 6 of 6 and the survivor count (dose: 64.0 mg/kg/injection, schedule: Q01DX010 (ip), vehicle: saline) is reported as 6 of 6.

With `[I][Hg][CH2]C1COC([CH2][Hg][I])CO1` (configuration not stated) the T/C (dose: 6.25 mg/kg/injection, schedule: Q01DX010 (ip), vehicle: saline) was 126 % of control.

`O=C(Nc1ccc(NC(=O)Nc2ccc(C3=NCCN3)cc2)cc1)Nc1ccc(C2=NCCN2)cc1` was tested, and the T/C (dose: 110.0 mg/kg/injection, schedule: Q01DX010 (ip), vehicle: saline) was 140 % of control and the T/C (dose: 165.0 mg/kg/injection, schedule: Q01DX010 (ip), vehicle: saline) was 145 % of control.

In the case of `COc1cc(NS(C)(=O)=O)ccc1Nc1c2ccccc2nc2ccccc12`, the T/C (dose: 6.0 mg/kg/injection, schedule: Q04DX003 (ip), vehicle: other) is reported as 130 % of control.

With `O=C(Nc1ccc(C2=NCCN2)cc1)c1ccc(C(=O)Nc2ccc(C3=NCCN3)cc2)cc1` the T/C (dose: 75.0 mg/kg/injection, schedule: Q01DX010 (ip), vehicle: saline) was 130 % of control.

With `Nc1nc(N)c2nc(CNc3ccc(C(=O)NC(CCC(=O)O)C(=O)O)cc3)cnc2n1` (configuration not stated) the T/C (dose: 25.0 micrograms/kg/injection, schedule: Q01DX010 (ip), vehicle: other) was 129 % of control, the T/C (dose: 50.0 micrograms/kg/injection, schedule: Q01DX010 (ip), vehicle: other) was 133 % of control and the T/C (dose: 100.0 micrograms/kg/injection, schedule: Q01DX010 (ip), vehicle: other) was 133 and 141 % of control.

For `O=C(Nc1ccc(C(=O)Nc2ccc(C3=NCCCN3)cc2)cc1)Nc1ccc(C2=NCCCN2)cc1`, the T/C (dose: 15.0 mg/kg/injection, schedule: Q01DX010 (ip), vehicle: saline) was 141 % of control.

With `O=C(Nc1ccc(C2=NCCN2)cc1)c1ccc(C(=O)Nc2ccc(C3=NCCN3)cc2)c([N+](=O)[O-])c1` the T/C (dose: 6.0 mg/kg/injection, schedule: Q01DX010 (ip), vehicle: saline) was 125 % of control, the T/C (dose: 8.0 mg/kg/injection, schedule: Q01DX010 (ip), vehicle: saline) was 133 % of control and the T/C (dose: 12.0 mg/kg/injection, schedule: Q01DX010 (ip), vehicle: saline) was 125 % of control.

`O=C(Nc1ccc(C2=NCCN2)cc1)c1ccc(C(=O)Nc2ccc(C3=NCCN3)cc2)c(F)c1` was tested, and the T/C (dose: 180.0 mg/kg/injection, schedule: Q01DX010 (ip), vehicle: saline) was 138 % of control.

For `CCOC(=O)NP(=O)(N1CC1(C)C)N1CC1(C)C` (configuration not stated), the T/C (dose: 62.5 mg/kg/injection, schedule: Q01DX010 (ip), vehicle: saline) was 146 % of control.

For `COc1cccc2c1C(=O)c1c(O)c3c(c(O)c1C2=O)C[C@@](O)(C(C)=O)C[C@@H]3OC1CC(N)C(O)C(C)O1` (some centres not stated), the T/C (dose: 1.3 mg/kg/injection, schedule: Q04DX003 (ip), vehicle: water) was 135 % of control, the T/C (dose: 1.73 mg/kg/injection, schedule: Q04DX003 (ip), vehicle: water) was 134 % of control and the T/C (dose: 2.16 mg/kg/injection, schedule: Q04DX003 (ip), vehicle: water) was 135 % of control. The T/C (dose: 2.88 mg/kg/injection, schedule: Q04DX003 (ip), vehicle: water) was 128 % of control and the T/C (dose: 4.8 mg/kg/injection, schedule: Q04DX003 (ip), vehicle: water) was 133 % of control.

`CC(=O)O[C@H]1C(=O)[C@@]2(C)[C@H]([C@H](OC(=O)c3ccccc3)[C@]3(O)C[C@H](OC(=O)[C@H](O)[C@@H](NC(=O)c4ccccc4)c4ccccc4)C(C)=C1C3(C)C)[C@]1(OC(C)=O)CO[C@@H]1C[C@@H]2O` was tested, and the survivor count (dose: 100.0 mg/kg/injection, schedule: Q04DX003 (ip), vehicle: Klucel (hydroxypropylcellulose) (HPC)) was 7 of 8.

Source: PubChem BioAssay AID336 (DTP/NCI, 2004)
